This is an account of results in article PMC10373645.

Changes are numbered by the printed parent chain. These are yes or no findings as the source states them, for the method shown. Binding seen in cells or lysates may run through a third protein. Some results given as binding are weak or reduced against the parent protein; the word gives no strength. Tags and fused reporters may be left off the sequences shown.

Assay [1] addresses T1, Protein A-tagged Sx16-T7D (phospho-mimetic mutant, truncated Sx16 lacking the transmembrane domain) (mouse) (UniProt Q8BVI5).
T1 sequence: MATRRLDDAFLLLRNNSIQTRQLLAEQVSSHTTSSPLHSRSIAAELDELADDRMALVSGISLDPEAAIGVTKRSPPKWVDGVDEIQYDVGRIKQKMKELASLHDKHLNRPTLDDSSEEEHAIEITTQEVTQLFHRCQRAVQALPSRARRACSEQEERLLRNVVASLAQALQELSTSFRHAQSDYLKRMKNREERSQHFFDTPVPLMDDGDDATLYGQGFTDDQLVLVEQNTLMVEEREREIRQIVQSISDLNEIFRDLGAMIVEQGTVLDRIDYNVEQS
Briefly: pull-down; 250 µg yeast lysate expressing HA-mVps45 incubated with 20, 15, 10, 5, 2.5 and 1 µg of PrA-tagged Sx16 species for 2 h on ice; PrA-tagged species captured on IgG-Sepharose beads, washed, eluted by boiling in SDS-PAGE sample buffer; anti-HA immunoblot; only the target purified. Background: A western blot detects proteins with antibodies after separation by electrophoresis.

In assay [2] the target is T2, Protein A-tagged Sx16 (residues 1-279 of Sx16, fused to two copies of Protein-A via a thrombin cleavage site) (mouse) (UniProt Q8BVI5).
T2 sequence: T1 sequence with D7T
The description is as above.

B1: HA-tagged human mVps45 expressed in yeast (protein, UniProt Q9NRW7 1-570)
chain: MNVVFAVKQYISKMIEDSGPGMKVLLMDKETTGIVSMVYTQSEILQKEVYLFERIDSQNREIMKHLKAICFLRPTKENVDYIIQELRRPKYTIYFIYFSNVISKSDVKSLAEADEQEVVAEVQEFYGDYIAVNPHLFSLNILGCCQGRNWDPAQLSRTTQGLTALLLSLKKCPMIRYQLSSEAAKRLAECVKQVITKEYELFEFRRTEVPPLLLILDRCDDAITPLLNQWTYQAMVHELLGINNNRIDLSRVPGISKDLREVVLSAENDEFYANNMYLNFAEIGSNIKNLMEDFQKKKPKEQQKLESIADMKAFVENYPQFKKMSGTVSKHVTVVGELSRLVSERNLLEVSEVEQELACQNDHSSALQNIKRLLQNPKVTEFDAARLVMLYALHYERHSSNSLPGLMMDLRNKGVSEKYRKLVSAVVEYGGKRVRGSDLFSPKDAVAITKQFLKGLKGVENVYTQHQPFLHETLDHLIKGRLKENLYPYLGPSTLRDRPQDIIVFVIGGATYEEALTVYNLNRTTPGVRIVLGGTTVHNTKSFLEEVLASGLHSRSKESSQVTSRSASRR
On to B1, for which the binding entry in assay [1] and in assay [2] was “binds” each time.
